# Assay results from paper PMC7641127, “MCL1 binds and negatively regulates the transcriptional function of tumor suppressor p73” (Cell Death & Disease, 2020).
# Sequences of proteins named here, by UniProt entry; tags and fusion partners are left off.
# UniProt Q07820: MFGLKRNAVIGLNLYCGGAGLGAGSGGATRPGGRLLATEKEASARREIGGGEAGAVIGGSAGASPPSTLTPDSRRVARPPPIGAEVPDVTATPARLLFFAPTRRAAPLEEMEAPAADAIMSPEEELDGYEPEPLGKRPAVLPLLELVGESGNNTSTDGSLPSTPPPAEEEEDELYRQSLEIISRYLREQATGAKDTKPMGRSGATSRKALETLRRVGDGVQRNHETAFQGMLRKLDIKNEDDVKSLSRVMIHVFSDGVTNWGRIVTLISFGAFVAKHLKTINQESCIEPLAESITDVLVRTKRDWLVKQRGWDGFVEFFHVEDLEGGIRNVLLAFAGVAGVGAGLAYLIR
# No constants are given. Whether binding was seen depends on the method and setting. Binding seen in cells or lysates may run through a third protein. Some results given as binding are weak or reduced against the parent protein; the word gives no strength. Where a sequence is shown, tags or fusion partners need not be part of it.
# B1: FLAG-tagged TAp73α (protein, UniProt O15350-1 1-636)
# chain: MAQSTATSPDGGTTFEHLWSSLEPDSTYFDLPQSSRGNNEVVGGTDSSMDVFHLEGMTTSVMAQFNLLSSTMDQMSSRAASASPYTPEHAASVPTHSPYAQPSSTFDTMSPAPVIPSNTDYPGPHHFEVTFQQSSTAKSATWTYSPLLKKLYCQIAKTCPIQIKVSTPPPPGTAIRAMPVYKKAEHVTDVVKRCPNHELGRDFNEGQSAPASHLIRVEGNNLSQYVDDPVTGRQSVVVPYEPPQVGTEFTTILYNFMCNSSCVGGMNRRPILIIITLEMRDGQVLGRRSFEGRICACPGRDRKADEDHYREQQALNESSAKNGAASKRAFKQSPPAVPALGAGVKKRRHGDEDTYYLQVRGRENFEILMKLKESLELMELVPQPLVDSYRQQQQLLQRPSHLQPPSYGPVLSPMNKVHGGMNKLPSVNQLVGQPPPHSSAATPNLGPVGPGMLNNHGHAVPANGEMSSSHSAQSMVSGSHCTPPPPYHADPSLVSFLTGLGCPNCIEYFTSQGLQSIYHLQNLTIEDLGALKIPEQYRMTIWRGLQDLKQGHDYSTAQQLLRSSNAATISIGGSGELQRQRVMEAVHFRVRHTITIPNRGGPGGGPDEWADFGFDLPDCKARKQPIKEEFTEAEIH
# B2: FLAG-ΔNp73α (protein, UniProt O15350-8 1-587)
# chain: MLYVGDPARHLATAQFNLLSSTMDQMSSRAASASPYTPEHAASVPTHSPYAQPSSTFDTMSPAPVIPSNTDYPGPHHFEVTFQQSSTAKSATWTYSPLLKKLYCQIAKTCPIQIKVSTPPPPGTAIRAMPVYKKAEHVTDVVKRCPNHELGRDFNEGQSAPASHLIRVEGNNLSQYVDDPVTGRQSVVVPYEPPQVGTEFTTILYNFMCNSSCVGGMNRRPILIIITLEMRDGQVLGRRSFEGRICACPGRDRKADEDHYREQQALNESSAKNGAASKRAFKQSPPAVPALGAGVKKRRHGDEDTYYLQVRGRENFEILMKLKESLELMELVPQPLVDSYRQQQQLLQRPSHLQPPSYGPVLSPMNKVHGGMNKLPSVNQLVGQPPPHSSAATPNLGPVGPGMLNNHGHAVPANGEMSSSHSAQSMVSGSHCTPPPPYHADPSLVSFLTGLGCPNCIEYFTSQGLQSIYHLQNLTIEDLGALKIPEQYRMTIWRGLQDLKQGHDYSTAQQLLRSSNAATISIGGSGELQRQRVMEAVHFRVRHTITIPNRGGPGGGPDEWADFGFDLPDCKARKQPIKEEFTEAEIH
# B3: FLAG-TAp73β (protein, UniProt O15350-2 1-499)
# chain: MAQSTATSPDGGTTFEHLWSSLEPDSTYFDLPQSSRGNNEVVGGTDSSMDVFHLEGMTTSVMAQFNLLSSTMDQMSSRAASASPYTPEHAASVPTHSPYAQPSSTFDTMSPAPVIPSNTDYPGPHHFEVTFQQSSTAKSATWTYSPLLKKLYCQIAKTCPIQIKVSTPPPPGTAIRAMPVYKKAEHVTDVVKRCPNHELGRDFNEGQSAPASHLIRVEGNNLSQYVDDPVTGRQSVVVPYEPPQVGTEFTTILYNFMCNSSCVGGMNRRPILIIITLEMRDGQVLGRRSFEGRICACPGRDRKADEDHYREQQALNESSAKNGAASKRAFKQSPPAVPALGAGVKKRRHGDEDTYYLQVRGRENFEILMKLKESLELMELVPQPLVDSYRQQQQLLQRPSHLQPPSYGPVLSPMNKVHGGMNKLPSVNQLVGQPPPHSSAATPNLGPVGPGMLNNHGHAVPANGEMSSSHSAQSMVSGSHCTPPPPYHADPSLVRTWGP
# Target: MCL1 (full length human, overexpressed in HEK293T) (human) (UniProt Q07820)
# Test: co-IP; HEK293T co-transfected with MCL1 and a FLAG-p73 construct or FLAG control, 50 nM bortezomib for 24 h; MCL1 precipitated with anti-MCL1 (RC-13) on protein G Dynabeads; western blot for FLAG and MCL1
row,Binder,binding
1,B1,binds weakly
2,B2,binds weakly
3,B3,binds weakly
